Results as given in paper PMC6857912.
Results are given in words; binding and its absence hold for the method and conditions named. A result given as binding can be weak or reduced; the word gives no strength.

The chains behind the UniProt entries cited, without tags or fusion partners. Where a name states a change or a piece, a line headed by the entry shows the natural chain unless it says otherwise. Residues count along the entry.
UniProt E9Q8Q6: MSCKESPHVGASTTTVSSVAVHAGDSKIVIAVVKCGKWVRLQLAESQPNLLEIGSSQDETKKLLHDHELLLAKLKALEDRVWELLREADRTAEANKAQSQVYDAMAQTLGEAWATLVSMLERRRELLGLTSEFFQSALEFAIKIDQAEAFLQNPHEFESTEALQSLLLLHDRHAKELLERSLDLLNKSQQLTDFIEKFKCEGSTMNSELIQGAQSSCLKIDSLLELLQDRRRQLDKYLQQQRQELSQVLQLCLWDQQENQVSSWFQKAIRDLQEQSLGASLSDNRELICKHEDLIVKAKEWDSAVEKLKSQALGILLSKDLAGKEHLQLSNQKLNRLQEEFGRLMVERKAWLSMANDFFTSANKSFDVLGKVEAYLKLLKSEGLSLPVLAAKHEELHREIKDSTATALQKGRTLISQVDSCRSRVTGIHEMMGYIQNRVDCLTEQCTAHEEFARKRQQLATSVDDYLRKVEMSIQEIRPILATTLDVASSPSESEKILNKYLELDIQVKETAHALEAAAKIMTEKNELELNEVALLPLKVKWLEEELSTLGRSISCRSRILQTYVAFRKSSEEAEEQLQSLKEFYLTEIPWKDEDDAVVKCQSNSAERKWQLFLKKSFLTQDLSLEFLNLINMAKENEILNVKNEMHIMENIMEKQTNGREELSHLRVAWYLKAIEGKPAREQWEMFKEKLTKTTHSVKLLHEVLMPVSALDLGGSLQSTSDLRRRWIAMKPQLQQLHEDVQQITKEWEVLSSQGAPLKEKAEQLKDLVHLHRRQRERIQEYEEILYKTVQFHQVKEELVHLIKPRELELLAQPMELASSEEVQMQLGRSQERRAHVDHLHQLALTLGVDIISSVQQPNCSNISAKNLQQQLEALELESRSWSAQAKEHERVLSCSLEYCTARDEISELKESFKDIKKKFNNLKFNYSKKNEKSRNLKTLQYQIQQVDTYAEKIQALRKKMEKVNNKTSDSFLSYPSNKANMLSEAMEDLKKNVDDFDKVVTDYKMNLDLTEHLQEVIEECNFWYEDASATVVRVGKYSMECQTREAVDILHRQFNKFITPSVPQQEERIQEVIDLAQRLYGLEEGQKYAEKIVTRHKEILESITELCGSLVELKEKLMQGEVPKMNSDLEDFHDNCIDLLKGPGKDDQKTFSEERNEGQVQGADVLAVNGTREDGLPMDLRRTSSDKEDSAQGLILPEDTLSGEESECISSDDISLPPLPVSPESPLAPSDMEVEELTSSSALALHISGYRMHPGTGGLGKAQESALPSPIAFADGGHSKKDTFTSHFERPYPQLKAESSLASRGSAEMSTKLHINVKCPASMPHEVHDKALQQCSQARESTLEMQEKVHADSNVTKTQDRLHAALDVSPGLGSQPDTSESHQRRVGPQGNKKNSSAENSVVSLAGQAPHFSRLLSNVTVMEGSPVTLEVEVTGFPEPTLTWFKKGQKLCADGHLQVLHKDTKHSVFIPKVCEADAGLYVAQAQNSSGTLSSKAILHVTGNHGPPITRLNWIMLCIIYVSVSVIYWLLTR
UniProt Q5SXA9, residues 863-1104: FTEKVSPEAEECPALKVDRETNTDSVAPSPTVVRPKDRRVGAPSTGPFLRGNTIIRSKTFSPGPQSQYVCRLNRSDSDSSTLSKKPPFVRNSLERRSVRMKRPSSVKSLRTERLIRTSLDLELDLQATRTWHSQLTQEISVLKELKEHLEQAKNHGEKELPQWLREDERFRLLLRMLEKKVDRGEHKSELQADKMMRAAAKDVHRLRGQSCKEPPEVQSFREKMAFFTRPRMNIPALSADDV

Biological target: CAMDI coiled-coil region (yeast two-hybrid bait) (mouse) (UniProt E9Q8Q6)
Assay: two-hybrid; Matchmaker two-hybrid system kit (Clontech); screening of a mouse brain cDNA library with the CAMDI coiled-coil region as bait

binding: binds
Substance: KIBRA fragment containing a C-terminal coiled-coil region (863 to 1105 amino acids), two-hybrid prey (from UniProt Q5SXA9 863-1104) (domain or fragment)
